In publication PMC6553528, “An Interaction Network of the Human SEPT9 Established by Quantitative Mass Spectrometry” (G3: Genes|Genomes|Genetics, 2019):
These are yes or no findings as the source states them, for the method shown. In cells and extracts the contact can be indirect.

Target: T1, TAP-SEPT9_i1 (human), Q9UHD8
T1 chain: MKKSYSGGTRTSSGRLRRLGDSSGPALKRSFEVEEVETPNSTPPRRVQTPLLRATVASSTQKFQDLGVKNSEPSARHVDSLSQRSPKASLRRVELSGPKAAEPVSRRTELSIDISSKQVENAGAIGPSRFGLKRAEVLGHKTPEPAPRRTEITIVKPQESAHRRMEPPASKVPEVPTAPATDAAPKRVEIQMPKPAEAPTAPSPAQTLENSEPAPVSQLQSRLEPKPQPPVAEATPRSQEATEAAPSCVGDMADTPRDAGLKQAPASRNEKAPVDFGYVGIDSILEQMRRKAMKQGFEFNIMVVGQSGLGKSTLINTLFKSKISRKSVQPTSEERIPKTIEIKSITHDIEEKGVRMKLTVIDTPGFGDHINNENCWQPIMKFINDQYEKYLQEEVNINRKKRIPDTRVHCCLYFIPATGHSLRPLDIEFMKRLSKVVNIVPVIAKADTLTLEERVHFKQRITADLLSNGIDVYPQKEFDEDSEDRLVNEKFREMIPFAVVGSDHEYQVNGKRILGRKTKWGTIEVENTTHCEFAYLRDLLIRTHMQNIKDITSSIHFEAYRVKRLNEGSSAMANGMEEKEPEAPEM
Experiment: co-IP; affinity purification on human IgG-Sepharose from 1306 fibroblast lysate; Western blot of the steps with anti-ProteinA, anti-GFP or anti-SEPT9
Conditions: remark: other sources report otherwise

binding: no binding
B1: endogenous SEPT9, Q9UHD8 1-586 (protein)
chain: T1 chain
